Results are given in words; binding and its absence hold for the method and conditions named. Binding calls can cover weak binding; strength is not graded here.
What was measured:
[1] = molecular target: T1, mouse IL-10 receptor (mouse, UniProt Q61727 17-575); assay: FACS on MC/9 and J774 cells
T1 construct: Expressed on transfected COS7 cells; the native receptor on mouse cell lines (MC/9, J774, WEHI 265.1) is written as this same molecule; also called mIL-10R; mouse IL-10 receptor component
T1 sequence: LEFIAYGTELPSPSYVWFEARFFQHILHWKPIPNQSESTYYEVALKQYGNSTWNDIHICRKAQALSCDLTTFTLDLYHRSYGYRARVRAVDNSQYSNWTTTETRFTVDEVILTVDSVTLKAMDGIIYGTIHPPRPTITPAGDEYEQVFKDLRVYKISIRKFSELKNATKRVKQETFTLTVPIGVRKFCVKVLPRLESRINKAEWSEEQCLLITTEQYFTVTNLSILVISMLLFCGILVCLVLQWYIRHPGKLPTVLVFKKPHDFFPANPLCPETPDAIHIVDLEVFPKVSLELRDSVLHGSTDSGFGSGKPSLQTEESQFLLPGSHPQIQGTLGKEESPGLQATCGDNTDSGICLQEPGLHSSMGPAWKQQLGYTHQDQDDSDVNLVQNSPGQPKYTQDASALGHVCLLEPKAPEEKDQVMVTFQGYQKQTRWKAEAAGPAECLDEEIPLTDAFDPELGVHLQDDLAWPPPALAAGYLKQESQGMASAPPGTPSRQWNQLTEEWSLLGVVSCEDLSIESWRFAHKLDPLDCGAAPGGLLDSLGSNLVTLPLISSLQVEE

Chains of the proteins cited; added tags and fusions are not shown. Lines headed by an entry give the natural chain unless they say otherwise; changes in a name come on top.
UniProt P18893: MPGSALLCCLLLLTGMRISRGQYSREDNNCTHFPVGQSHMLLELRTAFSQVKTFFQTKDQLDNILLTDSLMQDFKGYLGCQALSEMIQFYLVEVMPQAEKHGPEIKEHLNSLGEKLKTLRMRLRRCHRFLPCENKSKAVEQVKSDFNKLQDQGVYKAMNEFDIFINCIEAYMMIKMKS

[2] = molecular target: T1, mouse IL-10 receptor; assay: chemical cross-linking, SDS-PAGE
[3] = molecular target: T1, mouse IL-10 receptor; assay: FACS on COS7 cells transfected with mIL-10 receptor clone m3.14

Measured: binding

FLAG-mouse IL-10 (from UniProt P18893) (ligand)
binds: all assays above

From patent US6423500 (SCHERING, dated 2002)
